In the supplement of paper PMC12823440, “Inhibitors supercharge kinase turnover through native proteolytic circuits” (Nature, 2025):
This is one part of the list. Hit calls seldom repeat between salt and free forms of one compound.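 In K562 cells expressing nanoluciferase-fused kinases, luminescence was recorded at 4 h intervals between 2 and 18 h, normalized as percent of control with DMSO at 100% and a positive control at 0%. A significant (2 sigma) signal drop marks a time point as decreased. The authors' rule for a hit is not shown and takes in more than the number of time points.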

Protein sequences, listed by entry. Tags and fused reporters are not part of them. Lines headed by an entry give the natural chain unless they say otherwise; changes in a name come on top.
UniProt P50613: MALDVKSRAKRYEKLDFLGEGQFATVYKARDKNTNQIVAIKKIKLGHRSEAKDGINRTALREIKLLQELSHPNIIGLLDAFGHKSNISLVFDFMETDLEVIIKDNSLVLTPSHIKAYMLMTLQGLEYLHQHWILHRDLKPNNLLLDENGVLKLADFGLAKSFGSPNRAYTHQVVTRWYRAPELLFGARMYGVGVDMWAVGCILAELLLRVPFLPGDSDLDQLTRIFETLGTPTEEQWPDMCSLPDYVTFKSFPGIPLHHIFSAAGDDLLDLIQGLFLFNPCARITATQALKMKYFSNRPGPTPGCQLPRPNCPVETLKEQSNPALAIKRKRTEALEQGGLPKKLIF
UniProt P50750, whole entry: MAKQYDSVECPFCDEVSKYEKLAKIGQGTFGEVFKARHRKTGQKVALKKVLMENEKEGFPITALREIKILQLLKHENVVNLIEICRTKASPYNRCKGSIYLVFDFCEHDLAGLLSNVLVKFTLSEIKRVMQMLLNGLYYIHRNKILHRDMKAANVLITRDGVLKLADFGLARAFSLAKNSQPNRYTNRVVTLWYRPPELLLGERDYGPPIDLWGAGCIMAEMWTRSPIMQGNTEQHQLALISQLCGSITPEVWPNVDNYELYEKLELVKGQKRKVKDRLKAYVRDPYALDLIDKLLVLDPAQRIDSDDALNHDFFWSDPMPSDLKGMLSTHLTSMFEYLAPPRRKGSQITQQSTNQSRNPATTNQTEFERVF
UniProt P07333, whole entry: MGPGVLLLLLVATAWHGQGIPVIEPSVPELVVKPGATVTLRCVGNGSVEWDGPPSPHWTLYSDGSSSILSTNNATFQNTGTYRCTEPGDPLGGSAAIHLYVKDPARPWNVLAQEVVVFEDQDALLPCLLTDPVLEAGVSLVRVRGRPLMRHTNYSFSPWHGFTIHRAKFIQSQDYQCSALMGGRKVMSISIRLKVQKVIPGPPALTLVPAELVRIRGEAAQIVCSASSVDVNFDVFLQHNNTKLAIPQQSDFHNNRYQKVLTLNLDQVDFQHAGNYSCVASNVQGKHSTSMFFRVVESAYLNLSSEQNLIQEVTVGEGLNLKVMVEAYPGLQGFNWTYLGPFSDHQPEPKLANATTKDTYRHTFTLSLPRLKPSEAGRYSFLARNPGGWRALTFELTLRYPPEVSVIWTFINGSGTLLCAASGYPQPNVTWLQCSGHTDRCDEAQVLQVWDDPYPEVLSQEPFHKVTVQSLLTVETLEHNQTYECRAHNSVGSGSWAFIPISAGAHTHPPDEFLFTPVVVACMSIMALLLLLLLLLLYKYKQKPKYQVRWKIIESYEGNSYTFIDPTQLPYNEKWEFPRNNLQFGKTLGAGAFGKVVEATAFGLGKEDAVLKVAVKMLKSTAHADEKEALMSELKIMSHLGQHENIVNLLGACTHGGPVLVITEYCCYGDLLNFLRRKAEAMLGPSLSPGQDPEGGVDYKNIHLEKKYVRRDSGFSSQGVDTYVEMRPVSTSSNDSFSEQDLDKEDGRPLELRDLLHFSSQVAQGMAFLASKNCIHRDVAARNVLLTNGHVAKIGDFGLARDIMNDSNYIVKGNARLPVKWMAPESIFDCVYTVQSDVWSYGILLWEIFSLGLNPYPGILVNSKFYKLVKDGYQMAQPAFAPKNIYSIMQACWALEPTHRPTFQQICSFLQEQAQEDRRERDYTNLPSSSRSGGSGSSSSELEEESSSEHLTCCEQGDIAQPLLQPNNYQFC
UniProt P41240: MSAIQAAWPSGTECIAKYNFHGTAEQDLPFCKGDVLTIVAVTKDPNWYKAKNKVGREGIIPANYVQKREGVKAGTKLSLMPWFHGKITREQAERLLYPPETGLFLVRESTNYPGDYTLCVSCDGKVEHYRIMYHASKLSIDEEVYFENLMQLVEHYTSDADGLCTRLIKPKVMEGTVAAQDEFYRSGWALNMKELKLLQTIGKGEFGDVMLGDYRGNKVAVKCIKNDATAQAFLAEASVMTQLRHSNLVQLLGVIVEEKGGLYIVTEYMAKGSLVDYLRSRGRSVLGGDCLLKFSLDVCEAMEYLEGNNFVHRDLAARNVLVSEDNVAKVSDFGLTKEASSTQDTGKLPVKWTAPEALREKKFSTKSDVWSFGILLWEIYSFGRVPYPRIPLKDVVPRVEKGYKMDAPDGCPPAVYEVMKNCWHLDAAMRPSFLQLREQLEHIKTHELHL
UniProt P48729: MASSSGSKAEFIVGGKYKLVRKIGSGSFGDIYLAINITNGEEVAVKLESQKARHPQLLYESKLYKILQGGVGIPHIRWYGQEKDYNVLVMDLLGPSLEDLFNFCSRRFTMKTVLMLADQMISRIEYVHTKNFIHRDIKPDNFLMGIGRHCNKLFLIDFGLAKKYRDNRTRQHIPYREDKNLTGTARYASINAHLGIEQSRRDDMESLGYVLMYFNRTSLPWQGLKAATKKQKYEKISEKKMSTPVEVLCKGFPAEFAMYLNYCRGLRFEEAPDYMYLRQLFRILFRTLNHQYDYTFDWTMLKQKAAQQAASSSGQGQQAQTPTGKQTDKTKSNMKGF
UniProt P48730: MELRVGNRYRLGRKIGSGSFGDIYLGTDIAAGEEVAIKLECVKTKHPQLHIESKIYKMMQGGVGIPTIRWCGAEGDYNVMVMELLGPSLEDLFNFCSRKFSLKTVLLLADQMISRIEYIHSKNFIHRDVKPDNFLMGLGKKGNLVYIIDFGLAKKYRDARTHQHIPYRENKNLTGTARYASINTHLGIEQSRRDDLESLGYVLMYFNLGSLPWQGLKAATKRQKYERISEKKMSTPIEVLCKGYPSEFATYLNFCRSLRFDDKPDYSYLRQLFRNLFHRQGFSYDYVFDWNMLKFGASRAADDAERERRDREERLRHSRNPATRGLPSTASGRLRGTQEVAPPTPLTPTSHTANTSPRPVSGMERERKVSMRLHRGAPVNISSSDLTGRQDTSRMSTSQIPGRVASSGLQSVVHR
UniProt P29317, whole entry: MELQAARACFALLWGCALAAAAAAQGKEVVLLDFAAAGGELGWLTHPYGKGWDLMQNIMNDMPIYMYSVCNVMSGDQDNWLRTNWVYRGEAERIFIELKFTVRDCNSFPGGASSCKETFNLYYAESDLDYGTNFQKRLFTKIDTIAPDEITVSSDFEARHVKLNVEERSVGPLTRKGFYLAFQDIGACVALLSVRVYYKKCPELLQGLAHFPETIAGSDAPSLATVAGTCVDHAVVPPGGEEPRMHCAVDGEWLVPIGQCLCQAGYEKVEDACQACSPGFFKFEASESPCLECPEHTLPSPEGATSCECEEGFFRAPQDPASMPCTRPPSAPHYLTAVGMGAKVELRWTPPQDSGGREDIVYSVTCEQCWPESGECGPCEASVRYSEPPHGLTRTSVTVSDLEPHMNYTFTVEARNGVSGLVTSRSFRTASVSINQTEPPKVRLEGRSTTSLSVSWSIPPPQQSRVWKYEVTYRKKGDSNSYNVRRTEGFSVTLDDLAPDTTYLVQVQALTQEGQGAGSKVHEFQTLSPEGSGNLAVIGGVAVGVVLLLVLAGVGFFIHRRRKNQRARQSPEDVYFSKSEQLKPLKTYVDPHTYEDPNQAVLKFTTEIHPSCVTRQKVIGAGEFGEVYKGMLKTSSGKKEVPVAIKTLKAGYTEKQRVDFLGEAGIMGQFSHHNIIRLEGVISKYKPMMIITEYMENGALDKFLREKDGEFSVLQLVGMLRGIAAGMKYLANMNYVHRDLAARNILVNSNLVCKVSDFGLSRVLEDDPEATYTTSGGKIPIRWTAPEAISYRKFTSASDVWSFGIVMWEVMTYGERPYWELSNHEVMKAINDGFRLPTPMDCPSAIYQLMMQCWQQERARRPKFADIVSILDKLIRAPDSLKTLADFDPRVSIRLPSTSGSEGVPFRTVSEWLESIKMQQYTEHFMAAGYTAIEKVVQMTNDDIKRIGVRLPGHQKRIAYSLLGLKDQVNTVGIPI
UniProt P21860, whole entry: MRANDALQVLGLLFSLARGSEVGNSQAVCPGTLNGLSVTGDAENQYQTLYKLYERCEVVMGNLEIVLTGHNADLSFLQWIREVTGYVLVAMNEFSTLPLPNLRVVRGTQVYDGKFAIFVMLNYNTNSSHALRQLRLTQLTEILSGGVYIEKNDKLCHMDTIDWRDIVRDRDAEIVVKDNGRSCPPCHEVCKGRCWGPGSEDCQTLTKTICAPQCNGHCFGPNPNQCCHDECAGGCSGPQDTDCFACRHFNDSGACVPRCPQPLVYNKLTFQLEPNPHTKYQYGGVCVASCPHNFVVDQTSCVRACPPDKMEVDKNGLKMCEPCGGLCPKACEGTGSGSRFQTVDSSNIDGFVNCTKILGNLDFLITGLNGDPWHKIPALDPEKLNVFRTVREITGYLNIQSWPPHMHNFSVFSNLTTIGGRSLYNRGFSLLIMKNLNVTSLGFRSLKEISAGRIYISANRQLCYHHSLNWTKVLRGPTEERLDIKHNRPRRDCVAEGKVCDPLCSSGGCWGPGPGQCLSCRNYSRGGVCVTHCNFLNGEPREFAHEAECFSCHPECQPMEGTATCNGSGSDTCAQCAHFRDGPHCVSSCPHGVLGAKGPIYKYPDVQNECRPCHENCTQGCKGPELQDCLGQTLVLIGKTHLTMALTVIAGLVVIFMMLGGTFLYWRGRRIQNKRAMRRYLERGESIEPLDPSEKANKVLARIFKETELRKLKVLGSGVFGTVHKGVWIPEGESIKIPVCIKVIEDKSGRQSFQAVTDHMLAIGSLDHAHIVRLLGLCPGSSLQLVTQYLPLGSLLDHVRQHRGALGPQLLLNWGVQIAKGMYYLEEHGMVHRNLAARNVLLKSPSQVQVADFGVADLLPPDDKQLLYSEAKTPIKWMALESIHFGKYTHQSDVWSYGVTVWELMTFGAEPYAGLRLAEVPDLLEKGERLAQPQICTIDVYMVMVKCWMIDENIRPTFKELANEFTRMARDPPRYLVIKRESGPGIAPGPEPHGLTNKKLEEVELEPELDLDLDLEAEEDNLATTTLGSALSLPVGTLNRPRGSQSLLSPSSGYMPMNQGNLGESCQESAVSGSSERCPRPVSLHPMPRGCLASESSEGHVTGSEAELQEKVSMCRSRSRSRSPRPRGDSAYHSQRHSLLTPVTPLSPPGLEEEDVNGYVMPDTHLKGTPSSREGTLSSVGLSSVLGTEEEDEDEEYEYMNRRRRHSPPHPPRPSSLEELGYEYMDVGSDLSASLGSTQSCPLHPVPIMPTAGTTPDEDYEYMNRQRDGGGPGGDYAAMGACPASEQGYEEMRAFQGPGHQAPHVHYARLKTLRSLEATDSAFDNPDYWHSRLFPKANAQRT
UniProt Q15303, whole entry R711C: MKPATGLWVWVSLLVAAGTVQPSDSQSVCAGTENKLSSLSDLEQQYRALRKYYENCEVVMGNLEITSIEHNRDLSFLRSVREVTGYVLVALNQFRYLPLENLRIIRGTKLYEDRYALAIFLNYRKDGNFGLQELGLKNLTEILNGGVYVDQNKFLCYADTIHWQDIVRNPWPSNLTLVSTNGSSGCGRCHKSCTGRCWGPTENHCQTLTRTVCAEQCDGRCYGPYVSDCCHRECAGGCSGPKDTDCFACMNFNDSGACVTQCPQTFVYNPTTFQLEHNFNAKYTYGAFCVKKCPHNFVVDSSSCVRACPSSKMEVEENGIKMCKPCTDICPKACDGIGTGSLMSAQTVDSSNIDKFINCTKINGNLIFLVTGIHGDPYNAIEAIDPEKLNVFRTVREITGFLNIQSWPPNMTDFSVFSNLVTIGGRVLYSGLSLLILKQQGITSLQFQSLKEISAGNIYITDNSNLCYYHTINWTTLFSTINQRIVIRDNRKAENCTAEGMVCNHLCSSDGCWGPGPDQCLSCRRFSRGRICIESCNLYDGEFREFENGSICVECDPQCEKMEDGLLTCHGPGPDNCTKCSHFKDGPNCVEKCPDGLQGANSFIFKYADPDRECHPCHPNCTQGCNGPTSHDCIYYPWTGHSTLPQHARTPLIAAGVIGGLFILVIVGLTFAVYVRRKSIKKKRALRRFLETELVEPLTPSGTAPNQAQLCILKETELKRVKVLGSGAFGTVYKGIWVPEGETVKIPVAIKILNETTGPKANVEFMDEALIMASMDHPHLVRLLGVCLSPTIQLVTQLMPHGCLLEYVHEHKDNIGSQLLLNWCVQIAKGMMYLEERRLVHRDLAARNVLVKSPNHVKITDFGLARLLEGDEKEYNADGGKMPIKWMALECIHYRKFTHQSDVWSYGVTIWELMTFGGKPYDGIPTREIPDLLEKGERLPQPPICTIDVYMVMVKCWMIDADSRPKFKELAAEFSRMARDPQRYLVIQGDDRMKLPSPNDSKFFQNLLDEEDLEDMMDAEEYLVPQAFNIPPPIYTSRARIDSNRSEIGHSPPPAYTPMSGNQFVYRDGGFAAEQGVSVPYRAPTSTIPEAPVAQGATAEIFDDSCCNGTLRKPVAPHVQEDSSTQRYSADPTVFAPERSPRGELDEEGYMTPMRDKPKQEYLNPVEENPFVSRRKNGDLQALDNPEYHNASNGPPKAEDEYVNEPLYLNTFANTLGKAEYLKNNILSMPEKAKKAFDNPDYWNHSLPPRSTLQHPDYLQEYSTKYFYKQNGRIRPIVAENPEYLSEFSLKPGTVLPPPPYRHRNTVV

Tests used:
Assay in all cases: kinase-Nluc reporter destabilization hit call (1 = scored as downregulated) (binary); higher = compound decreases kinase abundance
Settings in all cases: K562; 2-18 h
[1] = molecular target: CDK7 (UniProt P50613)
[2] = molecular target: CDK9 (UniProt P50750)
[3] = molecular target: CHEK2 (UniProt O96017)
[4] = molecular target: CSF1R (UniProt P07333)
[5] = molecular target: CSK (UniProt P41240)
[6] = molecular target: CSNK1A1 (UniProt P48729)
[7] = molecular target: CSNK1D (UniProt P48730)
[8] = molecular target: DDR1 (UniProt Q08345)
[9] = molecular target: DYRK1B (UniProt Q9Y463)
[10] = molecular target: DYRK2 (UniProt Q92630)
[11] = molecular target: EGFR (UniProt P00533)
[12] = molecular target: EGFR_G719S (UniProt P00533)
[13] = molecular target: EGFR_G719S_T790M (UniProt P00533)
[14] = molecular target: EGFR_L718V (UniProt P00533)
[15] = molecular target: EGFR_L858R (UniProt P00533)
[16] = molecular target: EGFR_L861Q (UniProt P00533)
[17] = molecular target: EGFR_T790M (UniProt P00533)
[18] = molecular target: EPHA2 (UniProt P29317)
[19] = molecular target: ERBB3 (UniProt P21860)
[20] = molecular target: ERBB4_R711C (clone: ERBB4_mut) (UniProt Q15303)

Measured: kinase-Nluc reporter destabilization hit call

OCCC#Cc1nc(-c2ccc(F)cc2)c(-c2ccncc2)n1CCCc1ccccc1 (2.5 µM)
inactive: [1] 0 | [2] 0 | [3] 0 | [4] 0 | [5] 0 | [6] 0 | [7] 0 | [8] 0 | [9] 0 | [10] 0 | [11] 0 | [12] 0 | [13] 0 | [14] 0 | [15] 0 | [16] 0 | [17] 0 | [18] 0 | [19] 0 | [20] 0

Cc1nc(Nc2ncc(C(=O)Nc3c(C)cccc3Cl)s2)cc(N2CCN(C(=O)CCCCCCC(=O)N[C@H](C(=O)N3C[C@H](O)C[C@H]3C(=O)NCc3ccc(-c4scnc4C)cc3)C(C)(C)C)CC2)n1 (2.5 µM)
inactive: [1] 0 | [2] 0 | [3] 0 | [4] 0 | [5] 0 | [6] 0 | [7] 0 | [8] 0 | [9] 0 | [10] 0 | [11] 0 | [12] 0 | [13] 0 | [14] 0 | [15] 0 | [16] 0 | [17] 0 | [18] 0 | [19] 0 | [20] 0

C=CC(=O)Nc1cc(C(=O)NC)cc(-c2n[nH]c3ccccc23)c1 (10 µM)
inactive: [1] 0 | [2] 0 | [3] 0 | [4] 0 | [5] 0 | [6] 0 | [7] 0 | [8] 0 | [9] 0 | [10] 0 | [11] 0 | [12] 0 | [13] 0 | [14] 0 | [15] 0 | [16] 0 | [17] 0 | [18] 0 | [19] 0 | [20] 0

O=C(CCc1ccc2n1[B-](F)(F)[N+]1=C(c3ccc[nH]3)C=CC1=C2)ON1C(=O)CCC1=O [Py-BODIPY-NHS ester] (2.5 µM)
inactive: [1] 0 | [2] 0 | [3] 0 | [4] 0 | [5] 0 | [6] 0 | [7] 0 | [8] 0 | [9] 0 | [10] 0 | [11] 0 | [12] 0 | [13] 0 | [14] 0 | [15] 0 | [16] 0 | [17] 0 | [18] 0 | [19] 0 | [20] 0

Cc1cc(Nc2ncc(Cl)c(Nc3ccccc3S(=O)(=O)C(C)C)n2)c(OC(C)C)cc1C1CCN(CC(=O)NCCNc2cccc3c2C(=O)N(C2CCC(=O)NC2=O)C3=O)CC1 (stereo not given) (10 µM)
inactive: [1] 0 | [2] 0 | [3] 0 | [4] 0 | [5] 0 | [6] 0 | [7] 0 | [8] 0 | [9] 0 | [10] 0 | [11] 0 | [12] 0 | [13] 0 | [14] 0 | [15] 0 | [16] 0 | [17] 0 | [18] 0 | [19] 0 | [20] 0

C[C@H](CC[C@@H](O)C(C)(C)O)[C@H]1CC[C@@]2(C)[C@@H]3CC=C4[C@@H](CC[C@H](O)C4(C)C)[C@]3(C)[C@H](O)C[C@]12C [Mogrol] (10 µM)
inactive: [1] 0 | [2] 0 | [3] 0 | [4] 0 | [5] 0 | [6] 0 | [7] 0 | [8] 0 | [9] 0 | [10] 0 | [11] 0 | [12] 0 | [13] 0 | [14] 0 | [15] 0 | [16] 0 | [17] 0 | [18] 0 | [19] 0 | [20] 0

NC(=O)c1cccc2c(N[C@H](CN3CCC3)c3ccc(Cl)c(C(F)(F)F)c3)ncnc12 (10 µM)
inactive: [1] 0 | [2] 0 | [3] 0 | [4] 0 | [5] 0 | [6] 0 | [7] 0 | [8] 0 | [9] 0 | [10] 0 | [11] 0 | [12] 0 | [13] 0 | [14] 0 | [15] 0 | [16] 0 | [17] 0 | [18] 0 | [19] 0 | [20] 0

O=C(c1ccc(NS(=O)(=O)c2cccc3cccnc23)cc1)N1CCN(CC2CC2)CC1 [Mitapivat] (10 µM)
inactive: [1] 0 | [2] 0 | [3] 0 | [4] 0 | [5] 0 | [6] 0 | [7] 0 | [8] 0 | [9] 0 | [10] 0 | [11] 0 | [12] 0 | [13] 0 | [14] 0 | [15] 0 | [16] 0 | [17] 0 | [18] 0 | [19] 0 | [20] 0

O=S(=O)(N=Cc1c(O)ccc2ccccc12)c1cccs1 (10 µM)
inactive: [1] 0 | [2] 0 | [3] 0 | [4] 0 | [5] 0 | [6] 0 | [7] 0 | [8] 0 | [9] 0 | [10] 0 | [11] 0 | [12] 0 | [13] 0 | [14] 0 | [15] 0 | [16] 0 | [17] 0 | [18] 0 | [19] 0 | [20] 0

CC(C)(O)c1cc2nc(-c3cnc(N)nc3)nc(N3CCOCC3)c2s1 (2.5 µM)
inactive: [1] 0 | [2] 0 | [3] 0 | [4] 0 | [5] 0 | [6] 0 | [7] 0 | [8] 0 | [9] 0 | [10] 0 | [11] 0 | [12] 0 | [13] 0 | [14] 0 | [15] 0 | [16] 0 | [17] 0 | [18] 0 | [19] 0 | [20] 0

C1=N/C2=N/c3ccc(OCCN4CCCC4)c(c3)COC/C=C/COCc3cccc(c3)C(=C1)N2 [Pacritinib] (2.5 µM)
inactive: [1] 0 | [2] 0 | [3] 0 | [4] 0 | [5] 0 | [6] 0 | [7] 0 | [8] 0 | [9] 0 | [10] 0 | [11] 0 | [12] 0 | [13] 0 | [14] 0 | [15] 0 | [16] 0 | [17] 0 | [18] 0 | [19] 0 | [20] 0

CC(C)(C)S(=O)(=O)c1ccc2nccc(Nc3n[nH]c4ccc(F)cc34)c2c1 (10 µM)
inactive: [1] 0 | [2] 0 | [3] 0 | [4] 0 | [5] 0 | [6] 0 | [7] 0 | [8] 0 | [9] 0 | [10] 0 | [11] 0 | [12] 0 | [13] 0 | [14] 0 | [15] 0 | [16] 0 | [17] 0 | [18] 0 | [19] 0 | [20] 0

Cn1cc(-c2ccc3nnc(Sc4ccc5nn(C)cc5c4)n3n2)cn1 [c-Met inhibitor 1] (10 µM)
inactive: [1] 0 | [2] 0 | [3] 0 | [4] 0 | [5] 0 | [6] 0 | [7] 0 | [8] 0 | [9] 0 | [10] 0 | [11] 0 | [12] 0 | [13] 0 | [14] 0 | [15] 0 | [16] 0 | [17] 0 | [18] 0 | [19] 0 | [20] 0

CNS(=O)(=O)Nc1nccc(Cc2c(C)c3ccc(Oc4ncccn4)cc3oc2=O)c1F (10 µM)
inactive: [1] 0 | [2] 0 | [3] 0 | [4] 0 | [5] 0 | [6] 0 | [7] 0 | [8] 0 | [9] 0 | [10] 0 | [11] 0 | [12] 0 | [13] 0 | [14] 0 | [15] 0 | [16] 0 | [17] 0 | [18] 0 | [19] 0 | [20] 0

Retrieved one by one from above (two):
CNS(=O)(=O)Nc1nccc(Cc2c(C)c3ccc(Oc4ncccn4)cc3oc2=O)c1F (10 µM)
inactive: [1] 0 | [2] 0 | [3] 0 | [4] 0 | [5] 0 | [6] 0 | [7] 0 | [8] 0 | [9] 0 | [10] 0 | [11] 0 | [12] 0 | [13] 0 | [14] 0 | [15] 0 | [16] 0 | [17] 0 | [18] 0 | [19] 0 | [20] 0

Cn1cc(-c2ccc3nnc(Sc4ccc5nn(C)cc5c4)n3n2)cn1 [c-Met inhibitor 1] (10 µM)
inactive: [1] 0 | [2] 0 | [3] 0 | [4] 0 | [5] 0 | [6] 0 | [7] 0 | [8] 0 | [9] 0 | [10] 0 | [11] 0 | [12] 0 | [13] 0 | [14] 0 | [15] 0 | [16] 0 | [17] 0 | [18] 0 | [19] 0 | [20] 0

Remaining list, next part:

Nc1nc2c(ncn2COCCO)c(=O)[nH]1 [Acyclovir] (10 µM)
inactive: [1] 0 | [2] 0 | [3] 0 | [4] 0 | [5] 0 | [6] 0 | [7] 0 | [8] 0 | [9] 0 | [10] 0 | [11] 0 | [12] 0 | [13] 0 | [14] 0 | [15] 0 | [16] 0 | [17] 0 | [18] 0 | [19] 0 | [20] 0

Cc1nc(NC(=O)N2CCC[C@H]2C(N)=O)sc1-c1csc(C(C)(C)C)n1 (10 µM)
inactive: [1] 0 | [2] 0 | [3] 0 | [4] 0 | [5] 0 | [6] 0 | [7] 0 | [8] 0 | [9] 0 | [10] 0 | [11] 0 | [12] 0 | [13] 0 | [14] 0 | [15] 0 | [16] 0 | [17] 0 | [18] 0 | [19] 0 | [20] 0

CC1=C(C(=O)Nc2ccc3[nH]ncc3c2)C(c2ccc(F)c(C(=O)NCc3ccccn3)c2)NC(=O)N1 (stereo not given) (10 µM)
inactive: [1] 0 | [2] 0 | [3] 0 | [4] 0 | [5] 0 | [6] 0 | [7] 0 | [8] 0 | [9] 0 | [10] 0 | [11] 0 | [12] 0 | [13] 0 | [14] 0 | [15] 0 | [16] 0 | [17] 0 | [18] 0 | [19] 0 | [20] 0

COc1ccc(-c2cnc3c(-c4cccc5ncccc45)cnn3c2)cc1 (10 µM)
inactive: [1] 0 | [2] 0 | [3] 0 | [4] 0 | [5] 0 | [6] 0 | [7] 0 | [8] 0 | [9] 0 | [10] 0 | [11] 0 | [12] 0 | [13] 0 | [14] 0 | [15] 0 | [16] 0 | [17] 0 | [18] 0 | [19] 0 | [20] 0
